Test results from patent US20040192889A1, “Cytotoxic peptides and peptidomimetics based thereon, and methods for use thereof” (priority 2001, published 2004).
Where “and” joins values, the source holds several entries; their conditions need not be identical. Identical values can stand only once. At least one compound was matched to its structure with a doubt left.

Key:
[1] = tested on: hippocampal neurons; assay: Toxicity of transduced peptides to neurons in primary hippocampal cultures (NeuN immunostaining, quantitative image analysis); format: cell-based; conditions: NeuN/GFAP immunostaining; read-out: LC50 by quantitative image analysis
Protocol: Hippocampal or cortical neurons derived from 17-day old rat embryos were plated in modified minimum essential media (MEM-PAK) supplemented with 5% horse serum. Three days later, the cultures were treated with 10 μM cytosine arabinoside (AraC). Twenty-four h later the cells were treated with the peptide conjugates and incubated for an additional 24 or 48 h. Cells were incubated in the presence of 50 μM of the general caspase inhibitor BOC-Asp(Ome)-FMK (BAF) for 30 min prior to addition of peptides or with an equivalent volume of dimethylsulfoxide (DMSO) and then maintained in the presence of the same concentration of the inhibitor for the duration of the experiment. In all experiments involving Aβ, a 1 mM Aβ42 stock solution was used that had been incubated at 37° C. for 48 h and then stored at 4° C. to allow for the formation of Aβ fibrils. Aβ42 was purchased from AnaSpec (San Jose, Calif.). […]
Hippocampal cultures were fixed in 4% paraformaldehyde in 1× phosphate-buffered saline (PBS) for 20 min at room temperature (RT). […] Images were acquired using Nikon Eclipse-800 microscope and Optronics MagnaFire camera and software, and analyzed using Compix Simple PCI software. The total surface area corresponding to red and green fluorescence in each confocal image was determined by image analysis using Simple PCI software (Compix, Inc., Philadelphia). […]

[2] = tested on: primary hippocampal cultures; assay: Viability of primary hippocampal cultures by trypan blue exclusion; format: cell-based, rat
Protocol: (§1) Hippocampal or cortical neurons derived from 17-day old rat embryos were plated in modified minimum essential media (MEM-PAK) supplemented with 5% horse serum. Three days later, the cultures were treated with 10 μM cytosine arabinoside (AraC). Twenty-four h later the cells were treated with the peptide conjugates and incubated for an additional 24 or 48 h. Cells were incubated in the presence of 50 μM of the general caspase inhibitor BOC-Asp(Ome)-FMK (BAF) for 30 min prior to addition of peptides or with an equivalent volume of dimethylsulfoxide (DMSO) and then maintained in the presence of the same concentration of the inhibitor for the duration of the experiment. In all experiments involving Aβ, a 1 mM Aβ42 stock solution was used that had been incubated at 37° C. for 48 h and then stored at 4° C. to allow for the formation of Aβ fibrils. Aβ42 was purchased from AnaSpec (San Jose, Calif.).
Peptides were synthesized and purified at the Stanford University Protein and Nucleic Acid (PAN) Facility. All peptide stocks were solubilized in water at 1 or 10 mM concentration. […]
Aβ exacerbates the sensitivity of hippocampal cultures to C31 toxicity. […] Thirty-six hours later, the cultures were evaluated by the LIVE/DEAD assay. […] Cells were stained with Hoechst 33342 and scored for nuclear condensation.

[3] = tested on: primary hippocampal cultures; assay: Viability of primary hippocampal cultures by MTT assay; format: cell-based, rat; conditions: 36 hours after transduction; read-out: LC50 by MTT assay for cell viability
Protocol: as §1
Peptides were synthesized and purified at the Stanford University Protein and Nucleic Acid (PAN) Facility. All peptide stocks were solubilized in water at 1 or 10 mM concentration. […] A control peptide used was a fusion of the human immunodeficiency virus-1 TAT protein (HIV-TAT) delivery peptide sequence (Hileman et al., FEBS Lett. 415:145-154 (1997) and the first helix of the p75 receptor intracellular domain. […]

SMILES: CC[C@H](C)[C@H](NC(=O)[C@H](CCCCN)NC(=O)[C@@H](NC(=O)[C@H](CCC(N)=O)NC(=O)[C@H](CCCNC(=N)N)NC(=O)[C@@H](N)CSSC[C@H](N)C(=O)N[C@@H](C)C(=O)N[C@@H](C)C(=O)N[C@H](C(=O)N[C@H](C(=O)N1CCC[C@H]1C(=O)N[C@@H](CCC(=O)O)C(=O)N[C@@H](CCC(=O)O)C(=O)N[C@@H](CCCNC(=N)N)C(=O)N[C@@H](Cc1c[nH]cn1)C(=O)N[C@@H](CC(C)C)C(=O)N[C@@H](CO)C(=O)N[C@@H](CCCCN)C(=O)N[C@@H](CCSC)C(=O)N[C@@H](CCC(N)=O)C(=O)N[C@@H](CCC(N)=O)C(=O)N[C@@H](CC(N)=O)C(=O)NCC(=O)N[C@@H](Cc1ccc(O)cc1)C(=O)N[C@@H](CCC(=O)O)C(=O)N[C@@H](CC(N)=O)C(=O)N1CCC[C@H]1C(=O)N[C@H](C(=O)N[C@@H](Cc1ccc(O)cc1)C(=O)N[C@@H](CCCCN)C(=O)N[C@@H](Cc1ccccc1)C(=O)N[C@@H](Cc1ccccc1)C(=O)N[C@@H](CCC(=O)O)C(=O)N[C@@H](CCC(N)=O)C(=O)N[C@@H](CCSC)C(=O)N[C@@H](CCC(N)=O)C(=O)N[C@@H](CC(N)=O)C(=O)O)[C@@H](C)O)[C@@H](C)O)C(C)C)[C@@H](C)CC)C(=O)N[C@@H](Cc1c[nH]c2ccccc12)C(=O)N[C@@H](Cc1ccccc1)C(=O)N[C@@H](CCC(N)=O)C(=O)N[C@@H](CC(N)=O)C(=O)N[C@@H](CCCNC(=N)N)C(=O)N[C@@H](CCCNC(=N)N)C(=O)N[C@@H](CCSC)C(=O)N[C@@H](CCCCN)C(=O)N[C@@H](Cc1c[nH]c2ccccc12)C(=O)N[C@@H](CCCCN)C(=O)N[C@@H](CCCCN)C(=O)O [DP-APPC31]
- CC50 [1]: 3.75 µM and ~5 µM
- CC50 ([2]; neuronal cultures, 30 hours after transduction, read-out: LC50 by trypan blue exclusion): 3.75 µM and 4 µM
- CC50 ([2]; preincubation with 5 μM Aβ for 24 h, then transduction in absence of Aβ, read-out: LC50 in primary cultures pre-exposed to sublethal fibrillar Aβ): < 0.5 µM
- CC50 [3]: 5 µM
